Assay results: PMC12040169 (PLOS Biology, 2025)
The other results are listed elsewhere or left out.

System: T1, CTL2-GFP (C. trachomatis L2/434/Bu, GFP-expressing)
T1 construct: L2/434/Bu, GFP-expressing
Design: species or system HeLa; Intracellular C. trachomatis growth in HeLa cells, bulk GFP fluorescence relative to DMSO
Settings: bulk GFP, single well; 28.5 h, 10 µM; inhibitor

Structure (SMILES) | % of control remaining [%]
Cc1ccccc1C1(O)CCN(CC(O)c2ccc3c(c2)OCCCO3)CC1 (stereo not shown) [CBK286332] | 103.647
O=C(Nc1ccc(N2CCCCC2)c2ccncc12)c1cccc(-n2cnnn2)c1 [CBK297754] | 132.753
CCn1c(CN2CCC(c3cc(O)nc(N)n3)C2)nc2c(F)cccc21 (stereo not shown) [CBK304189] | 117.794
COc1ccc(/C=C(/C(=O)NCc2ccc(Cl)cc2Cl)c2ccccc2)cc1 [CBK265256] | 113.187
CS(=O)(=O)c1ccc(-c2cnc3[nH]c(=O)n(-c4ccc5[nH]ccc5c4)c3n2)cc1 [CBK064691] | 116.374
Cc1nc(NS(=O)(=O)Cc2ccccc2[N+](=O)[O-])sc1C(=O)O [CBK045564] | 130.189
Oc1cccc(-c2nccnc2NCc2cccc(C(F)(F)F)c2)c1 [CBK037014] | 110.166
Nc1cccc(Sc2ncccn2)c1 [CBK085844] | 97.8824
O=C(O)C1CCN(C(=O)NCCOc2ccccc2)CC1 [CBK156072] | 108.1
O=c1cc(CN2CCC(Cc3ccccc3)CC2)[nH]c(=O)[nH]1 [CBK126388] | 106.626
C#CCNC(=O)C1CCN(c2nc3ccccc3n2CC=C)CC1 [CBK283925] | 101.75
Cn1c2c(c(=O)n(C)c1=O)[C@H]1[C@H](O)[C@H](O)C[C@H]1[C@@H](C(O)c1ccccc1)N2 (stereo partly shown) [CBK303236] | 116.128
O=C(CCc1ccccc1)N1CCCC1c1cccc(Cc2ccccc2F)n1 (stereo not shown) [CBK286208] | 94.3114
CC(NC(=O)CN1CCCCCC1=O)c1cc2cc(Cl)ccc2o1 (stereo not shown) [CBK281448] | 125.014
CCN(CC)C(=O)c1cccc(NS(=O)(=O)c2cccc3cccnc23)c1 [CBK038999] | 107.18
Oc1cccc2c1CC(NCC(F)(F)C(F)(F)F)CC2 (stereo not shown) [CBK007596] | 149.02
O=C(Nc1ccc(F)cc1)N1Cc2nc[nH]c2C[C@H]1c1nc(-c2ccc(F)cc2)no1 [CBK288970] | 123.68
Cc1nc(C2CCN(C(=O)C3CCC3)CC2)nc2c1CCCN2CCc1ccccc1 [CBK285645] | 113.928
CCCc1nc(SC)ncc1C(=O)Nc1nnc(SCC)s1 [CBK291198] | 94.2336
CC(C)c1nn(C)c(N(C)C)c1CNCc1cscn1 [CBK304321C] | 132.027
O=C(NCC1COc2ccccc2O1)N1CCCCC1CO (stereo not shown) [CBK156162] | 151.368
Cc1ccc(S(=O)(=O)N(CCC#N)CCN2CCCC2)cc1 [CBK028055] | 82.9869
FC(F)(F)c1nc2ccccc2[nH]1 [CBK028224] | 105.898
CCN(CC)C(=O)c1c(F)ccc(F)c1C(=O)O [CBK022303] | 142.441
CCCC(=O)N(C)C(CO)c1cc(OC)ccc1Br (stereo not shown) [CBK304694] | 86.8166
CCN(CC)CCn1c(OC)cc(=O)[nH]c1=O [CBK264411] | 100
CCCn1c(N)c(C(=O)CSc2ncnc3sc4c(c23)CCCC4)c(=O)[nH]c1=O [CBK297556] | 136.379

Structure (SMILES) | % of control remaining [%]
CC1=NN(c2ccc([N+](=O)[O-])cc2)C(=O)/C1=C\NCCc1ccc(S(N)(=O)=O)cc1 [CBK263006] | 100
S=c1[nH]nc(-c2ccco2)n1-c1ccc(Cl)cc1 [CBK023586] | 160.456
COC(=O)c1ccc(CSc2nnc(-c3ccc(OC)cc3)n2C(C)C)o1 [CBK297523] | 102.979
Cc1ccc(-c2nnc(COc3ccc(-c4cnc5ccccc5n4)cc3)o2)cc1 [CBK269721] | 110.451
O=C(O)CNS(=O)(=O)c1ccc(Cl)c(Cl)c1 [CBK266981] | 154.071
Cc1cc(=O)oc2cc(NC(=S)NNC(=O)c3ccc4c(c3)c(C)c(C)n4Cc3ccccc3)ccc12 [CBK267138] | 164.906
Clc1ccc(CN2CCC(Oc3nccnc3OC3CCCCC3)CC2)cc1 [CBK082856T] | 117.738
CCCCOc1ccc(-c2nonc2NC(=O)COc2ccccc2Cl)cc1 [CBK299792] | 107.728
COCCN1C(=O)C2(CC(=O)N(CC3CCCCC3)C2=O)c2cc(OC)ccc21 (stereo not shown) [CBK075166] | 105.549
O=C(NC(=O)N1CCSC1)c1c(Cl)cccc1Cl [CBK028794] | 126.205
O=[N+]([O-])c1ccc(CN2CCN(C/C=C/c3ccccc3)CC2)o1 [CBK026551] | 100.779
O=C1NCCNC(=O)C2(C/C=C/COc3ccccc31)CCN(C(=O)c1cncs1)CC2 [CBK292023] | 118.878
COc1cc(C)ccc1S(=O)(=O)Nc1cccc2cc[nH]c12 [CBK159511] | 101.046
NC(=O)c1ccccc1-c1cnc(N)c(-c2ccc(O)cc2)n1 [CBK115536] | 124.646
OC(Cn1ccc2ccccc21)Cn1c(Cc2ccccc2)nc2ccccc21 (stereo not shown) [CBK267954] | 122.218
CN1Cc2ccccc2-c2ccc(O)cc21 [CBK017804] | 100
C[C@H](Nc1cncc(-c2ccc3ccccc3c2)n1)c1ccccc1 [CBK065799] | 108.008
CCOC(=O)N1CCC(NS(=O)(=O)c2ccc(OC)c(OC)c2)CC1 [CBK045464] | 90.6517
O=C(C1CC2C=CC1C21CC1)N1CCC(Oc2cccc(F)c2)CC1 (stereo not shown) [CBK281525] | 132.727
Cc1ccc(S(=O)(=O)NCCc2ccccn2)s1 [CBK269223] | 118.404
CC1CCCCC1NC(=O)CSc1cccc2cccnc12 (stereo not shown) [CBK058143] | 90.4719
COc1nccnc1N1CCN(CCCn2c(=O)[nH]c3ccccc32)CC1 [CBK084226] | 128.091
COc1cc(CN2CCNCC2)c2ccn(S(=O)(=O)c3ccccc3Cl)c2c1 [CBK144483T] | 97.3762
Cc1ccc(-c2nc3ccc(C)cc3c(C(=O)OCC(=O)c3cccc([N+](=O)[O-])c3)c2C)cc1 [CBK264436] | 122.734
Cn1cnc2cc(-c3nnn[nH]3)ccc21 [CBK306265] | 155.581
Cc1ccc(CCC(=O)N2CCCC2c2nc3ccccc3[nH]2)o1 (stereo not shown) [CBK284012] | 99.3343
COc1ccc(N(CC(O)CN2CCOCC2)S(=O)(=O)c2ccccc2)cc1 (stereo not shown) [CBK263589] | 100.661

Structure (SMILES) | % of control remaining [%]
Nc1ccc(-c2ccccc2)c2ccccc12 [CBK084312] | 90.7899
CSc1ccc(/C=C(\C#N)c2nn(-c3ccccc3)c(N)c2C#N)cc1 [CBK262339] | 89.0466
CCCC(=O)N1CCCCC1c1nn(C)cc1-c1onc(C)c1C (stereo not shown) [CBK283409] | 144.197
O=C(NCc1nc2ccccc2[nH]1)c1cc(Br)cnc1NCCOc1ccccc1 [CBK076220] | 109.975
Brc1cccc(/C=N/c2ccc3nc(-c4ccccc4)[nH]c3c2)c1 [CBK261143] | 92.4385
O=C(c1cc(F)c(F)cc1F)N1CCC2(CCCN(CCCn3c(=O)[nH]c4ccccc43)C2)C1 (stereo not shown) [CBK132004] | 129.607
CCOC(=O)c1[nH]c2ccccc2c1NC(=O)c1c(F)ccc(Cl)c1F [CBK160141] | 99.9247
COc1ccc(-n2c(SCC(N)=O)nc3sc4c(c3c2=O)CC(C)(C)OC4)cc1 [CBK263232] | 103.294
CC(Oc1ccccc1)C(=O)N1CCN(C/C=C/c2ccccc2)CC1 (stereo not shown) [CBK269050] | 93.0995
Cn1nc(-c2ccc(S(=O)(=O)Nc3nc(-c4cccnc4)cs3)s2)cc1C(F)(F)F [CBK067270] | 126.448
CCc1nnc2sc(-c3ccccc3Br)nn12 [CBK269533] | 126.626
CCc1cc(CNS(=O)(=O)c2ccc(C)s2)on1 [CBK283066] | 149.014
CCOC(=O)C(NC(=O)c1cn(C)cn1)c1cccc(C)c1C (stereo not shown) [CBK304098] | 102.866
CC(O)c1cc2n(n1)CCN(C(=O)c1csc(Cc3ccccc3)n1)C2 (stereo not shown) [CBK307437] | 126.703
CCn1ncc(S(=O)(=O)N2CCCC(c3ccccc3)C2)c1C (stereo not shown) [CBK282760] | 142.767
Cc1nc2c(C(=O)NCC(F)(F)F)cnn2c(C)c1Cc1ccccc1 [CBK162208] | 101.814
O=S(=O)(CC(F)(F)F)Nc1cccc2cc[nH]c12 [CBK153585] | 118.107
Cc1nc2ccccc2n1CC(=O)N(Cc1cccnc1)C1CC1 [CBK305248] | 91.6183
COc1ccc(C(=O)CSc2nnc(-c3ccccc3)[nH]2)cc1[N+](=O)[O-] [CBK263299] | 104.077
Cc1[nH]c2ccccc2c1C(=O)CSc1nnc(Cc2cccs2)n1C [CBK268663] | 79.9861
Cc1cn2c3c(=O)n(CCN4CCOCC4)c(=O)n(C)c3nc2n1CC1CCCO1 (stereo not shown) [CBK269985] | 154.547
CC(=O)N1CCN([C@H]2[C@@H]3OC[C@@H](O3)[C@@H](NCC3CCCCC3)[C@@H]2O)CC1 [CBK288809] | 113.24
Cn1c(CN2CCN(S(=O)(=O)c3ccccc3)CC2)nc2cc([N+](=O)[O-])ccc21 [CBK268321] | 98.2186
O=C(c1ccc2ncccc2c1)N1CCN(C(=O)c2ccco2)CC1 [CBK144461] | 114.163
CC(=O)NCCSc1cc(N2CCCC2)ncn1 [CBK105621] | 171.584
